US20220378727A1 (priority 2021, published 2022)
For at least one compound, name, drawing or mass did not settle the structure.

Test system: SARS-CoV-2
Experiment: In vivo prophylactic activity against SARS-CoV-2
Set-up: species or system golden Syrian hamster

SMILES: CCC(CC)COC(=O)[C@H](C)N[P@](=O)(OC[C@H]1O[C@@](C#N)(c2ccc3c(N)ncnn23)[C@H](O)[C@@H]1O)Oc1ccccc1 [remdesivir]
- Viral titer in lung tissues compared with PBS (5 mg/kg i.t. 2 h before challenge, 4 d.p.i., plaque assay, p<0.05): significantly lower
- Viral RNA load in lung tissues compared with PBS (5 mg/kg i.t. 2 h before challenge, 4 d.p.i., qRT-PCR, p<0.05): significantly lower
- Lung histopathology (5 mg/kg i.t., 4 d.p.i., data not shown): ameliorated histopathological morphology with a mild degree of bronchiolar and alveolar cell infiltration
- SARS-CoV-2 nucleocapsid protein (NP) expression in alveolar region compared with PBS (immunofluorescence staining, 4 d.p.i., data not shown): considerably reduced
- Clinical symptoms (single i.t. dose 5 mg/kg 2 h before i.n. 10^5 p.f.u. SARS-CoV-2): have not developed clinical symptoms
